Measurements reported in patent US20220041740A1 (LIFEARC, published 2022).
No constants are given. Whether binding was seen depends on the method and setting. Some binding calls cover weakened binding; strength is not graded here.

Tests used:
[1] = molecular target: T1, IL-17BR (as injected in the Biacore competition assay) (Homo sapiens (Human)) (UniProt Q9NRM6); assay: Biacore 2000 competition assay; hD9030 captured on a Protein A chip, IL-17BR injected at 10 ug/ml
T1 sequence: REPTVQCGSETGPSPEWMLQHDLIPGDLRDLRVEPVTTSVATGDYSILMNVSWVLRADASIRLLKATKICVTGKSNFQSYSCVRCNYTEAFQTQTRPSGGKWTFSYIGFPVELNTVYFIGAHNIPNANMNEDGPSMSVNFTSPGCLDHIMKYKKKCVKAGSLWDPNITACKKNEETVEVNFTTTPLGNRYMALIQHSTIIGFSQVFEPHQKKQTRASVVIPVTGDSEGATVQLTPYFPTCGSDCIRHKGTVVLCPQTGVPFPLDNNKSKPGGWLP

[2] = molecular target: T1, IL-17BR (as injected in the Biacore competition assay) (Homo sapiens (Human)); assay: Biacore, hD9030 captured on Protein A chip, IL-17BR injected at 10 ug/ml

- binding [1]: binds
- binding [2]: binds
B1: humanised antibody hD9030 (antibody, human IgG1, V domains shown)
VH: EVQLVQSGAEVKKPGASVKVSCKTSGYTFISYWMNWVRQAPGQGLEWMGRIDPYDSEIQYNQKFKDRVTLTRDTSISTAYMELSRLRSDDTAVYYCARSGGFDWFAYWGQGTLVTVSS
VL: DIQMTQSPSSLSASVGDRVTITCRTSENIYSNLAWYQQKPGKAPKLLLYDATNLGDGVPSRFSGSGSGTDYTLTISSLQPEDFATYYCQHFWGPPYTFGGGTKVEIK
